These results are taken from publication PMC4829867.

Protein sequences, listed by entry. Tags and fused reporters are not part of them. Lines headed by an entry give the natural chain unless they say otherwise; changes in a name come on top.
UniProt P02533: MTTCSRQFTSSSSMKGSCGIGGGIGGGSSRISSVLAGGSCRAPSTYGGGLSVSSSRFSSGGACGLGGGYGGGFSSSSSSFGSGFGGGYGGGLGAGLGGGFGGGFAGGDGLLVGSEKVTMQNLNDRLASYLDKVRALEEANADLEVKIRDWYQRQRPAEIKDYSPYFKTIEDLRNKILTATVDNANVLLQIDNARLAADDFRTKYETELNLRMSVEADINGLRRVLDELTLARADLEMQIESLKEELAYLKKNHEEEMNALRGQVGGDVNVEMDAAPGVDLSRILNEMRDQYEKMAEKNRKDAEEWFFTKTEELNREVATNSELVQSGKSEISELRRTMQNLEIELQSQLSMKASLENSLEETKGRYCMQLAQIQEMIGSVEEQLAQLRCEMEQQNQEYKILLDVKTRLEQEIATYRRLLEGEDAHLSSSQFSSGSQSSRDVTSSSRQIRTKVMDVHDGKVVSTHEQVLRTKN
UniProt P08670: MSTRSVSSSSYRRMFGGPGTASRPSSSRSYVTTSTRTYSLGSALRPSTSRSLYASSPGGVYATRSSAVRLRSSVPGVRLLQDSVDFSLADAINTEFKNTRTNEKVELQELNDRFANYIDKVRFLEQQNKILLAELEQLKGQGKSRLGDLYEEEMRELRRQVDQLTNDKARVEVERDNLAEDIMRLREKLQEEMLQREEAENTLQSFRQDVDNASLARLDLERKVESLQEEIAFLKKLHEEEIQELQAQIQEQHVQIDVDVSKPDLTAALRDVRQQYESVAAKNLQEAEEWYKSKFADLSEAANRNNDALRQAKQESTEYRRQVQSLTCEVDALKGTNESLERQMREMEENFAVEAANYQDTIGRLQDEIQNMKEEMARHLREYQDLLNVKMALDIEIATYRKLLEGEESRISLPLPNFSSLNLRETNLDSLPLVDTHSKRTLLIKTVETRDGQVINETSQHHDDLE

No constants are given. Whether binding was seen depends on the method and setting. In cells and extracts the contact can be indirect. Some binding calls cover weakened binding; strength is not graded here.

The experiment has as its target keratin-KRT14 (human (endogenous in human epidermal keratinocytes)) (UniProt P02533). Briefly: co-IP; extracts of human epidermal keratinocytes transfected with wild type or mutant Vim, 48 h post-transfection; immunoprecipitation with the mAb against KRT14; immunoblot for Vim. (In western blotting, separated proteins are transferred to a membrane and probed.)
“V-E405G-E407G (from UniProt P08670 1-466)”: the binding result is reported as “binds”.

For the substance V-E407G (from UniProt P08670 1-466), the binding entry is on record as “binds”.

Take V-E405G (from UniProt P08670 1-466): the binding entry is “binds”.
